Source: PubChem BioAssay AID256 (DTP/NCI, 2004)
The list shows only some results of the screen, not a fair sample: it gathers tests that were run many times, whatever their T/C, doses with no T/C, and many T/C values between a quarter and a half above the control. Other doses and runs of a compound stand elsewhere. T/C: endpoint of the treated group in % of that of the vehicle group. Some doses have a count of surviving animals in place of a T/C: the source holds a T/C of zero for them, seemingly a mark for toxic or unscored doses. Some doses without a T/C left all or most animals alive at the check, yet need not have been tolerated: the source hardly ever lists a survival T/C far under the control, and the zero likely stands for such cases as well. Survivors were counted at the toxicity check, usually on the fifth day, unless a day is given; later deaths do not show. Schedules are NCI's codes, read here as Q, the interval in days (D) or hours (H), X, the number of doses. Some entries were tested several times; their values stand side by side, smallest first. Some schedule codes hold Z or #, which are not explained here. For survival time, the PubChem record calls one and a half times the control and up active, and a quarter to a half above the control has no call in these data; cut-offs in other NCI protocols can differ. Some T/C values are followed by the survivors on the day toxicity was checked, most often the fifth; without a count, all were alive then.

Tested on: CD2F1 mice, L1210 leukemia ip, survival T/C
Assay: NCI In Vivo Anticancer Drug Screen. Data for tumor model L1210 Leukemia (intraperitoneal) in CD2F1 (CDF1) mice
Details: higher T/C = longer survival
In short: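 Ratio T/C, where T is the treated-group value and C the vehicle-dosed control value, from mice implanted with a transplantable tumor.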

[1] = T/C endpoint: mean survival time, dose: 100.0 mg/kg/injection, schedule: Q04DX003 (ip), vehicle: saline with Tween-80
[2] = T/C endpoint: mean survival time, dose: 200.0 mg/kg/injection, schedule: Q04DX003 (ip), vehicle: saline with Tween-80
[3] = T/C endpoint: mean survival time, dose: 400.0 mg/kg/injection, schedule: Q04DX003 (ip), vehicle: saline with Tween-80
[4] = T/C endpoint: median survival time, dose: 400.0 mg/kg/injection, schedule: Q01DX005 (ip), vehicle: Klucel (hydroxypropylcellulose) (HPC)
[5] = T/C endpoint: mean survival time, dose: 200.0 mg/kg/injection, schedule: Q01DX009 (ip), vehicle: saline with Tween-80
[6] = T/C endpoint: mean survival time, dose: 400.0 mg/kg/injection, schedule: Q01DX009 (ip), vehicle: saline with Tween-80
[7] = T/C endpoint: mean survival time, dose: 400.0 mg/kg/injection, schedule: Q01DX009 (ip), vehicle: Klucel (hydroxypropylcellulose) (HPC)
[8] = T/C endpoint: mean survival time, dose: 100.0 mg/kg/injection, schedule: Q01DX009 (ip), vehicle: saline with Tween-80

## CNNCc1ccc(C(=O)NC(N)=O)cc1
T/C endpoint: mean survival time, dose: 32.0 mg/kg/injection, schedule: Q03HX024 (ip), vehicle: saline
  T/C: 133 % of control [9 of 10 alive]
T/C endpoint: mean survival time, dose: 64.0 mg/kg/injection, schedule: Q01DX008 (ip), vehicle: saline
  T/C: 128 % of control
T/C endpoint: mean survival time, dose: 64.0 mg/kg/injection, schedule: Q01DX009 (oral), vehicle: saline
  T/C: 132 % of control
T/C endpoint: mean survival time, dose: 64.0 mg/kg/injection, schedule: Q03HX016 (ip), vehicle: saline
  T/C: 127 % of control
T/C endpoint: mean survival time, dose: 64.0 mg/kg/injection, schedule: Q03HX024 (ip), vehicle: saline
  T/C: 135 % of control
T/C endpoint: mean survival time, dose: 100.0 mg/kg/injection, schedule: Q01DX Z (ip), vehicle: saline
  T/C: 129 % of control
T/C endpoint: mean survival time, dose: 128.0 mg/kg/injection, schedule: Q01DX008 (ip), vehicle: saline
  T/C: 131 % of control
T/C endpoint: mean survival time, dose: 128.0 mg/kg/injection, schedule: Q03HX008 (ip), vehicle: saline
  T/C: 126 % of control
T/C endpoint: mean survival time, dose: 128.0 mg/kg/injection, schedule: Q03HX016 (ip), vehicle: saline
  T/C: 134 % of control
T/C endpoint: mean survival time, dose: 148.0 mg/kg/injection, schedule: Q01DX Z (ip), vehicle: saline
  T/C: 132 % of control
T/C endpoint: mean survival time, dose: 256.0 mg/kg/injection, schedule: Q01DX005 (iv), vehicle: saline
  T/C: 126 % of control
T/C endpoint: mean survival time, dose: 256.0 mg/kg/injection, schedule: Q01DX008 (ip), vehicle: saline
  T/C: 139 % of control
T/C endpoint: mean survival time, dose: 500.0 mg/kg/injection, schedule: Q01DX Z (ip), vehicle: saline
  survivor count: 0 of 6
T/C endpoint: mean survival time, dose: 512.0 mg/kg/injection, schedule: Q01DX001 (oral), vehicle: saline
  T/C: 131 % of control [9 of 10 alive]
T/C endpoint: mean survival time, dose: 512.0 mg/kg/injection, schedule: Q01DX008 (ip), vehicle: saline
  survivor count: 4 of 10
T/C endpoint: mean survival time, dose: 512.0 mg/kg/injection, schedule: Q01DX009 (oral), vehicle: saline
  survivor count: 9 of 10
T/C endpoint: mean survival time, dose: 512.0 mg/kg/injection, schedule: Q04DX003 (ip), vehicle: saline
  T/C: 126 % of control
T/C endpoint: mean survival time, dose: 1024.0 mg/kg/injection, schedule: Q01DX001 (ip), vehicle: saline
  survivor count: 0 of 10
T/C endpoint: mean survival time, dose: 1024.0 mg/kg/injection, schedule: Q01DX001 (iv), vehicle: saline
  survivor count: 0 of 10
T/C endpoint: mean survival time, dose: 1024.0 mg/kg/injection, schedule: Q01DX001 (oral), vehicle: saline
  survivor count: 4 of 10
T/C endpoint: mean survival time, dose: 1024.0 mg/kg/injection, schedule: Q08DX002 (ip), vehicle: saline
  survivor count: 0 of 10

## c1ccc(C(c2ccccc2)C(c2ccccc2)c2ccccc2)cc1
T/C endpoint: mean survival time, dose: 75.0 mg/kg/injection, schedule: Q01DX009 (ip), vehicle: saline with Tween-80
  survivor count: 6 of 6

## COc1cc(N)ccc1NC(=O)c1ccccc1
T/C endpoint: mean survival time, dose: 50.0 mg/kg/injection, schedule: Q01DX009 (ip), vehicle: saline with Tween-80
  survivor count: 3 of 6

## COc1cc2c(cc1OC)C(CCN1C(=O)CCC1=O)=NCC2
T/C endpoint: mean survival time, dose: 400.0 mg/kg/injection, schedule: Q04DX003 (ip), vehicle: saline sonified
  survivor count: 6 of 6

## COc1ccc(C2=CC(c3ccccc3)C(c3ccccc3)C(=O)N2)cc1 (stereo not drawn)
T/C endpoint: mean survival time, dose: 50.0 mg/kg/injection, schedule: Q04DX002 (ip), vehicle: saline with Tween-80
  survivor count: 3 of 3
T/C endpoint: mean survival time, dose: 100.0 mg/kg/injection, schedule: Q04DX002 (ip), vehicle: saline with Tween-80
  survivor count: 3 of 3

## CC1(C)CSC(=S)N1
T/C endpoint: mean survival time, dose: 20.0 mg/kg/injection, schedule: Q04DX003 (ip), vehicle: saline with Tween-80
  survivor count: 5 of 6
[1]
  survivor count: 0 of 6
[2]
  survivor count: 0 of 6
[3]
  survivor count: 0 of 6

## C=C(Br)CNC(=O)C(=O)OCC
[2]
  T/C: 134 % of control
[3]
  survivor count: 3 of 6

## c1ccc2c(c1)[nH]c1c2c[n+]2c3c(cccc13)CCC2
T/C endpoint: mean survival time, dose: 25.0 mg/kg/injection, schedule: Q01DX001 (ip), vehicle: saline
  survivor count: 3 of 6
T/C endpoint: mean survival time, dose: 100.0 mg/kg/injection, schedule: Q01DX001 (ip), vehicle: saline
  survivor count: 0 of 6
T/C endpoint: mean survival time, dose: 200.0 mg/kg/injection, schedule: Q01DX001 (ip), vehicle: saline
  survivor count: 0 of 6
T/C endpoint: mean survival time, dose: 400.0 mg/kg/injection, schedule: Q01DX001 (ip), vehicle: saline
  survivor count: 0 of 6

## CN(C)CN1C(=O)S/C(=C2\C(=O)N(CN(C)C)c3ccccc32)C1=O
[4]
  survivor count: 2 of 6

## COc1ccc2c3c1OC1C(=O)C4CC5(c6c(O)ccc(O)c64)C(C2)N(C)CCC315 (stereo not drawn)
[1]
  survivor count: 6 of 6

## CC(=O)Oc1c(C)[nH]ccc1=O
[5]
  T/C: 131 % of control
[6]
  T/C: 125 % of control [5 of 6 alive]
T/C endpoint: mean survival time, dose: 400.0 mg/kg/injection, schedule: Q01DX009 (ip), vehicle: saline
  T/C: 142 % of control
T/C endpoint: mean survival time, dose: 800.0 mg/kg/injection, schedule: Q01DX009 (ip), vehicle: saline with Tween-80
  survivor count: 0 of 6 and 1 of 6
T/C endpoint: mean survival time, dose: 800.0 mg/kg/injection, schedule: Q01DX009 (ip), vehicle: saline
  T/C: 138 % of control

## CN(C)N=Nc1cccc(NC(N)=O)c1
T/C endpoint: mean survival time, dose: 39.5 mg/kg/injection, schedule: Q01DX009 (ip), vehicle: Klucel (hydroxypropylcellulose) (HPC)
  T/C: 132 % of control
T/C endpoint: mean survival time, dose: 118.0 mg/kg/injection, schedule: Q01DX009 (ip), vehicle: Klucel (hydroxypropylcellulose) (HPC)
  survivor count: 5 of 6
T/C endpoint: mean survival time, dose: 177.0 mg/kg/injection, schedule: Q01DX009 (ip), vehicle: Klucel (hydroxypropylcellulose) (HPC)
  survivor count: 1 of 6
T/C endpoint: mean survival time, dose: 266.0 mg/kg/injection, schedule: Q01DX009 (ip), vehicle: Klucel (hydroxypropylcellulose) (HPC)
  survivor count: 0 of 6
[7]
  survivor count: 0 of 6

## O=C(O)c1c2c(nc3ccccc13)-c1ccccc1C1(CCCC1)C2
[3]
  survivor count: 3 of 6

## c1cc[n+](Cc2ccc3ccccc3c2)c(C2OCCO2)c1
[8]
  survivor count: 0 of 6
[5]
  survivor count: 0 of 6
[6]
  survivor count: 1 of 6

## CC1(C)N=C(N)N=C(N)N1c1ccc(OCCCCNC(=O)c2ccc(S(=O)(=O)F)cc2)c(Cl)c1
[8]
  T/C: 128 % of control [5 of 6 alive]
  survivor count: 2 of 6
[5]
  survivor count: 2 of 6

## CCOC(=O)c1c[nH]c2ccc3c(nc(C)n3C)c2c1=O
[4]
  survivor count: 4 of 6

## COc1ccc(NC(=O)Nc2ccccc2C)c(Cl)c1
T/C endpoint: mean survival time, dose: 200.0 mg/kg/injection, schedule: Q04DX002 (ip), vehicle: saline with Tween-80
  survivor count: 3 of 3

## COC1=C(N)C(=O)c2nc(-c3nc(C(=O)O)c(C)c(-c4ccc(OC)c(OC)c4O)c3N)ccc2C1=O
T/C endpoint: mean survival time, dose: 1.0 mg/kg/injection, schedule: Q01DX009 (ip), vehicle: saline with Tween-80
  survivor count: 3 of 6
T/C endpoint: mean survival time, dose: 2.0 mg/kg/injection, schedule: Q04DX003 (ip), vehicle: saline with Tween-80
  survivor count: 3 of 6

## CC(C)(C)c1cc([N+](=O)[O-])cc([N+](=O)[O-])c1O
T/C endpoint: mean survival time, dose: 12.5 mg/kg/injection, schedule: Q04DX003 (ip), vehicle: saline with Tween-80
  survivor count: 6 of 6
T/C endpoint: mean survival time, dose: 25.0 mg/kg/injection, schedule: Q04DX003 (ip), vehicle: saline with Tween-80
  survivor count: 2 of 6
T/C endpoint: mean survival time, dose: 50.0 mg/kg/injection, schedule: Q04DX003 (ip), vehicle: saline with Tween-80
  survivor count: 0 of 6
[1]
  survivor count: 0 of 6
[2]
  survivor count: 0 of 6
[3]
  survivor count: 6 of 6

## Cc1ccc(C2(c3ccccc3)OC(=O)c3ccccc32)cc1 (stereo not drawn)
[5]
  survivor count: 6 of 6
[6]
  survivor count: 5 of 6

## O=C(O)CNC(=O)C(CSC(c1ccccc1)(c1ccccc1)c1ccccc1)NC(c1ccccc1)(c1ccccc1)c1ccccc1 (stereo not drawn)
T/C endpoint: mean survival time, dose: 150.0 mg/kg/injection, schedule: Q01DX001 (ip), vehicle: saline
  survivor count: 3 of 6
T/C endpoint: mean survival time, dose: 300.0 mg/kg/injection, schedule: Q01DX001 (ip), vehicle: saline
  survivor count: 0 of 6

## CC12CC(C(=O)O)C3(O)CC(C)(C1)CC(C)(C2)C3 (stereo not drawn) (tested in a mixture with another compound)
[7]
  survivor count: 0 of 6

## Cn1c(=O)c2c(ncn2CCCNCC(O)c2ccc(O)c(O)c2)n(C)c1=O (stereo not drawn)
T/C endpoint: mean survival time, dose: 200.0 mg/kg/injection, schedule: Q01DX005 (ip), vehicle: water
  survivor count: 2 of 6

## C(=NC1CCCCC1)c1c[nH]c2ccccc12
[6]
  survivor count: 3 of 6

## [Br][Pt+2][Br].[NH-]c1cccc(F)c1.[NH-]c1cccc(F)c1
T/C endpoint: mean survival time, dose: 200.0 mg/kg/injection, schedule: Q04DX003 (ip), vehicle: distilled water + Tween-80
  survivor count: 1 of 6
